Like-named read-outs stand apart in the source and are kept apart here. No constants are given. Whether binding was seen depends on the method and setting. In cells and extracts the contact can be indirect. For some of these results: Binding calls can cover weak binding; strength is not graded here. Where a sequence is shown, tags or fusion partners need not be part of it.
Assays:
Assay in all cases: co-IP
[1] = molecular target: RFP-Fbp17 (Dictyostelium discoideum) (UniProt Q55AN3)
[2] = molecular target: RFP-Fbp17 (Dictyostelium discoideum) (UniProt Q55AN3); remark: listed apart in the source
[3] = molecular target: RFP-Fbp17^ΔSH3 (Dictyostelium discoideum)

binding [1]	binding [2]	binding [3]	Binder
	binds		GxcM^4A-GFP (protein, UniProt Q1ZXN6 1-1145) MKIKFFRYVLTIDEQSEENKKEVAIDQQVVNDTNSDISSNRDSLNIEDEQQKESSSSLSSSSNNTTTTTATTTSPTTTATTTTTTATTSTTDESETTNSTTPTSATSTPDSMITPTKSKGSSNKLNSKEDKNLKKQKQKEEKERLEMEKQKQKEEKEQKIKDEKERLEMEKQKQKEEKEQKIKDEKERLEMEKQKQKEEKEKLKEEKEKSKREQKEKEKEKEDITEQKDKDSTPTKVQLTREPSVISKIFSVKKSNSLIIERSTSPVQIDSSPSKSFIESNNNNNSSSNNLANNTTDRNSISSEDANIIQNNTTDSNIENNETTNNNNNSNGSRTSTPTPINSEGIEKSISSSDLSNITTTTTTTGSGGLNTSPSTENINVGGGTDSGTTTTTTNNNNNNSTNNLVGDKTELSSGSSVISSPNGGTKREVVIKVTRAFAQVIHQNVMKEEGENKMRNMVINEIINTEKDYIADLNIIVNFILTPLKESKIIPDKDISIIFSNIQLLLNVNKELLSDLLQKAPDEKPNHTVGTCFIYFFKYLKIYSGYCANQTISADHIARCSKKIPSFKQFLEEKQASTECRQCNLESFLIKAAAALCKYPLLLRELIKNSCEGHPDLANLEKAYTEIQEVVLSVNESKRKAEIHQKMYKIHEKLQAPEKFVFFTPTRYLIREATFGELTEEKDKISGRMHYYLFNDIIMRTQKDKKSIRLETLFIIASTNVDGEENRGSSFCNTFEISQPGTTGRRFTLVADSYEQKMEWFTDLDELIKPHREEYSRNADKVLDHIKRSTIATTNPSSNGISSDSPKSLHRTQTAAGALQQQQQQSKPVHAIPSKPLPPPPPKSKSSATITPTTTTTNTTVVIDEPPTIVDSASTPLPSQTPIAKPRPTSTIKKTFITNSNQTSSPQQQQPATTEQAPPIPSRQQRPLSVTPTTTPTPSQPVITQQNENNNTVPTKTTRPLPKPGSFTAPAPVSTLINNNNTSNSSTTTTTTTTTNQPAKPIAFPSKLSNLKQAAPNNSARSASTFVPSTSHSSFVPSSVKNNTNNNNITKDDLSLPSSANNNNNNSNTDFTTPPTGKPRVMPLPPRGGSAVNVAVNNNNNINNNSPVPFPPTTNTTTPTATPPHSPQTSDLNLTKKPIIPPRK
	no binding		GxcM^N790-GFP (domain or fragment, UniProt Q1ZXN6 1-790) MKIKFFRYVLTIDEQSEENKKEVAIDQQVVNDTNSDISSNRDSLNIEDEQQKESSSSLSSSSNNTTTTTATTTSPTTTATTTTTTATTSTTDESETTNSTTPTSATSTPDSMITPTKSKGSSNKLNSKEDKNLKKQKQKEEKERLEMEKQKQKEEKEQKIKDEKERLEMEKQKQKEEKEQKIKDEKERLEMEKQKQKEEKEKLKEEKEKSKREQKEKEKEKEDITEQKDKDSTPTKVQLTREPSVISKIFSVKKSNSLIIERSTSPVQIDSSPSKSFIESNNNNNSSSNNLANNTTDRNSISSEDANIIQNNTTDSNIENNETTNNNNNSNGSRTSTPTPINSEGIEKSISSSDLSNITTTTTTTGSGGLNTSPSTENINVGGGTDSGTTTTTTNNNNNNSTNNLVGDKTELSSGSSVISSPNGGTKREVVIKVTRAFAQVIHQNVMKEEGENKMRNMVINEIINTEKDYIADLNIIVNFILTPLKESKIIPDKDISIIFSNIQLLLNVNKELLSDLLQKAPDEKPNHTVGTCFIYFFKYLKIYSGYCANQTISADHIARCSKKIPSFKQFLEEKQASTECRQCNLESFLIKPVQRLCKYPLLLRELIKNSCEGHPDLANLEKAYTEIQEVVLSVNESKRKAEIHQKMYKIHEKLQAPEKFVFFTPTRYLIREATFGELTEEKDKISGRMHYYLFNDIIMRTQKDKKSIRLETLFIIASTNVDGEENRGSSFCNTFEISQPGTTGRRFTLVADSYEQKMEWFTDLDELIKPHREEYSRNADKVLDHIKRS

Continued, binder first:

Binder	binding [1]	binding [2]	binding [3]
GxcM-GFP (protein, UniProt Q1ZXN6 1-1145) MKIKFFRYVLTIDEQSEENKKEVAIDQQVVNDTNSDISSNRDSLNIEDEQQKESSSSLSSSSNNTTTTTATTTSPTTTATTTTTTATTSTTDESETTNSTTPTSATSTPDSMITPTKSKGSSNKLNSKEDKNLKKQKQKEEKERLEMEKQKQKEEKEQKIKDEKERLEMEKQKQKEEKEQKIKDEKERLEMEKQKQKEEKEKLKEEKEKSKREQKEKEKEKEDITEQKDKDSTPTKVQLTREPSVISKIFSVKKSNSLIIERSTSPVQIDSSPSKSFIESNNNNNSSSNNLANNTTDRNSISSEDANIIQNNTTDSNIENNETTNNNNNSNGSRTSTPTPINSEGIEKSISSSDLSNITTTTTTTGSGGLNTSPSTENINVGGGTDSGTTTTTTNNNNNNSTNNLVGDKTELSSGSSVISSPNGGTKREVVIKVTRAFAQVIHQNVMKEEGENKMRNMVINEIINTEKDYIADLNIIVNFILTPLKESKIIPDKDISIIFSNIQLLLNVNKELLSDLLQKAPDEKPNHTVGTCFIYFFKYLKIYSGYCANQTISADHIARCSKKIPSFKQFLEEKQASTECRQCNLESFLIKPVQRLCKYPLLLRELIKNSCEGHPDLANLEKAYTEIQEVVLSVNESKRKAEIHQKMYKIHEKLQAPEKFVFFTPTRYLIREATFGELTEEKDKISGRMHYYLFNDIIMRTQKDKKSIRLETLFIIASTNVDGEENRGSSFCNTFEISQPGTTGRRFTLVADSYEQKMEWFTDLDELIKPHREEYSRNADKVLDHIKRSTIATTNPSSNGISSDSPKSLHRTQTAAGALQQQQQQSKPVHAIPSKPLPPPPPKSKSSATITPTTTTTNTTVVIDEPPTIVDSASTPLPSQTPIAKPRPTSTIKKTFITNSNQTSSPQQQQPATTEQAPPIPSRQQRPLSVTPTTTPTPSQPVITQQNENNNTVPTKTTRPLPKPGSFTAPAPVSTLINNNNTSNSSTTTTTTTTTNQPAKPIAFPSKLSNLKQAAPNNSARSASTFVPSTSHSSFVPSSVKNNTNNNNITKDDLSLPSSANNNNNNSNTDFTTPPTGKPRVMPLPPRGGSAVNVAVNNNNNINNNSPVPFPPTTNTTTPTATPPHSPQTSDLNLTKKPIIPPRK	binds	binds	no binding
GFP-WASP (protein, UniProt Q9GSG9 1-399) MGSPTISDQEKSQVAFIAGSSSDIHSTTVARLYEGRQGRWEFMAVGIVSVVSNRVDKTNYIKVFDLKANYRIIFEQEIYDTFEFQKQRDFFFAFEGDSCVYGLSFADVTEAAEFYGQLLNCKQGNIGKTAAINPNTSSTKITASTPAPKVEKKKEKKGFMSKFFSSEEKDLEISAPTNFKHESHIGWDPENGFDIKNIPPDWRKLFQSAGIKKSELKNAETAQFIVNIIGEQMVGGSAPPPTQPGRSAPPAPPSSNQPGRSAPPPPPSVGKSAPPPPPPSHKTPAAPPSGGGAPPPPPPPPPPSSGPPPPPPPMASAPPSSGGGGASGGGRNDLLASIRSGASLKAVDKTNPLPDIQSLGNEGSRSLADTLAAAMANRRGGMREDDEEDDDDDDEWSDY		binds	no binding

From doi:10.1101/2022.11.14.515780
